Measured data: PubChem BioAssay AID686943 (Drosophila RNAi Screening Center, 2013)

Purpose: 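Knockdowns that increase or decrease active ERK after insulin receptor stimulation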 (primary screen)
System: Drosophila S2R+ haemocyte-like cells expressing YFP-tagged ERK (Rolled)
Reagent: long dsRNA against Drosophila genes
Conditions: insulin stimulation versus unstimulated cells; dose and duration not given
Measured: 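Per-plate z-scores of phospho-ERK immunostaining normalised to YFP-tagged ERK, measured with and without insulin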
Reading the numbers: replicate 1, z-score of dpERK with insulin and replicate 2, z-score of dpERK with insulin: higher = more active ERK per ERK-YFP after insulin; replicate 1, z-score of dpERK under basal conditions: higher = more basal active ERK per ERK-YFP; replicate 1, z-score of ERK-YFP with insulin: higher = more YFP-tagged ERK signal
The deposit covers about 23,000 reagents; shown is a random part of those with a known target gene and a result. 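Extra replicates exist only for a retested subset of genes; insulin dose and duration not given; both raised and lowered dpERK matter.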 Names joined by + are all predicted targets of the reagent. Not stated in the record: the amount of reagent, the time to read-out.

| Target gene | dsRNA | replicate 1, z-score of dpERK with insulin | replicate 2, z-score of dpERK with insulin | replicate 1, z-score of dpERK under basal conditions | replicate 1, z-score of ERK-YFP with insulin |
| --- | --- | --- | --- | --- | --- |
| gcm2 | DRSC03538 | -0.23 | -0.28 | 0.17 | -0.91 |
| Lsd-1 (Lipid storage droplet-1) | DRSC14236 | 0.42 | -0.57 | -0.76 | 0.15 |
| eIF3f1 (eukaryotic translation initiation factor 3 subunit f1) | DRSC12328 | -0.51 | -2.25 | -3.17 | -1.16 |
| Coa8 (Cytochrome c oxidase assembly factor 8) | DRSC17959 | 0.44 | -0.83 | -0.52 | 0.2 |
| cos (costa) | DRSC07598 | -0.1 | -0.31 | -1.12 | 0.02 |
| CG17329 | DRSC01926 | -0.42 | -0.64 | -0.68 | 2 |
| Syt1 (Synaptotagmin 1) | DRSC00156 | 1.17 | 0.48 | -1.87 | 0.26 |
| Syt1 (Synaptotagmin 1) | DRSC00157 | 1.37 | 1.12 | -0.05 | 0.01 |
| Syt1 (Synaptotagmin 1) | DRSC00158 | -0.01 | 0.27 | 0.46 | 0.08 |
| Syt1 (Synaptotagmin 1) | DRSC00840 | -0.57 | -0.3 | -0.28 | 1.33 |
| Syt1 (Synaptotagmin 1) | DRSC22077 | -1.53 | -0.01 | 0.09 | -1.11 |
| CG31198 | DRSC15891 | -0.12 | -0.39 | -0.21 | 0.63 |
| RpL34b (Ribosomal protein L34b) | DRSC16475 | -0.35 | 0.06 | -0.89 | -1.22 |
| ATPsynGL (ATP synthase, subunit G-like) | DRSC03027 | 0.14 | 0.16 | -0.18 | -1.1 |
| CG8939 | DRSC20127 | 0.47 | 1.11 | -0.13 | -0.45 |
| Ankrd49 | DRSC01894 | -0.26 | -0.24 | -0.25 | -0.03 |
| CG11679 | DRSC19415 | -0.49 | 0.07 | -0.32 | -0.52 |
| CG31157 | DRSC21832 | -0.54 | -0.52 | 1.65 | -1.88 |
| Muc18B (Mucin 18B) | DRSC20064 | 0.75 | 0.63 | -0.52 | -0.08 |
| Muc18B (Mucin 18B) | DRSC21644 | -0.63 | 0.32 | -0.7 | 0.2 |
| CG12268 | DRSC14491 | -0.88 | -0.27 | 0.08 | -0.23 |
| Xpd (Xeroderma pigmentosum D) | DRSC04666 | 1 | 1.11 | -1.23 | 0.73 |
| CG17855 | DRSC02638 | -0.09 | -0.26 | -0.84 | 1.19 |
| Cyp28d1 (Cytochrome P450 28d1) | DRSC03298 | -0.19 | 0.66 | -0.67 | 0.02 |
| Cyp28d1 (Cytochrome P450 28d1) | DRSC21331 | 0.59 | -1.89 | 2.16 | -0.02 |
| Agpat1 (1-Acylglycerol-3-phosphate O-acyltransferase 1) | DRSC19879 | 0.28 | -0.1 | -0.45 | 0.11 |
| Agpat1 (1-Acylglycerol-3-phosphate O-acyltransferase 1) | DRSC19880 | 0.26 | -0.37 | 0.6 | 0.13 |
| E(z) (Enhancer of zeste) | DRSC11147 | -0.53 | -0.12 | -0.17 | -0.15 |
| HPS1 (Hermansky-Pudlak Syndrome 1) | DRSC06195 | 0.34 | 0.33 | 0.36 | 1.06 |
| Prat (Phosphoribosylamidotransferase) | DRSC16797 | 0.06 | 0.6 | -0.11 | 0.24 |
| Mst98Ca (Male-specific RNA 98Ca) | DRSC16749 | 0.37 | 0.69 | -0.11 | 1.03 |
| Rab3 | DRSC07523 | -0.19 | 0.87 | 1.24 | 0.14 |
| PMP34 (Peroxisomal Membrane Protein 34) | DRSC21939 | -0.16 | 1.44 | 0.82 | -0.13 |
| CG10970 | DRSC17772 | 1 | 0.51 | -0.37 | 0.02 |
| PKD (Protein Kinase D) | DRSC16200 | 0.04 | 0.15 | -0.36 | -0.17 |
| lft (lowfat) | DRSC02236 | -0.05 | 0.96 | -1.35 | 1.24 |
| fabp + sea | DRSC16114 | -0.64 | -0.54 | -0.4 | 0.35 |
| fabp + sea | DRSC16115 | -0.04 | -1.38 | -0.24 | 0.65 |
| SMSr (Sphingomyelin synthase related) | DRSC10998 | 0.63 | -0.8 | 0.54 | -0.67 |
| SMSr (Sphingomyelin synthase related) | DRSC10999 | -2.99 | -0.93 | -1.2 | -0.07 |

Ordered by “replicate 2, z-score of dpERK with insulin” (lowest first): 4 of the entries above
| Target gene | dsRNA | replicate 1, z-score of dpERK with insulin | replicate 2, z-score of dpERK with insulin | replicate 1, z-score of dpERK under basal conditions | replicate 1, z-score of ERK-YFP with insulin |
| --- | --- | --- | --- | --- | --- |
| Prat (Phosphoribosylamidotransferase) | DRSC16797 | 0.06 | 0.6 | -0.11 | 0.24 |
| Mst98Ca (Male-specific RNA 98Ca) | DRSC16749 | 0.37 | 0.69 | -0.11 | 1.03 |
| Rab3 | DRSC07523 | -0.19 | 0.87 | 1.24 | 0.14 |
| PMP34 (Peroxisomal Membrane Protein 34) | DRSC21939 | -0.16 | 1.44 | 0.82 | -0.13 |
